{"source": "the supplement of paper PMC4604168 (melanoma cell lines)", "note": "Some of the results follow. Single values are uncertain, as repeats are few or missing.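 Cells were imaged in 1,536-well plates, and nuclei stained with an antibody against cleaved PARP were counted against all DNA-stained nuclei to give the apoptosis fraction. Screening doses were chosen to leave most cells alive, and resting and induced cleaved-PARP levels differ strongly between cell lines.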"}
{"test_system": "MeWo", "test": "cleaved PARP positive nuclei fraction relative to DMSO control; melanoma cells; higher = more apoptosis", "conditions": "library dose: low library concentration; 72 h", "units": {"cleaved PARP positive nuclei fraction": "%"}}
{"compound": "O=C(Nc1ccccc1)c1cc([N+](=O)[O-])ccc1Cl", "note": "+ O=S(=O)(c1ccccc1)N(CC(F)(F)F)c1ccc(C(O)(C(F)(F)F)C(F)(F)F)cc1 [T0901317] (first compound 2 µM, partner dose 1.4 µM)", "cleaved PARP positive nuclei fraction": 185}
{"compound": "CN(C)S(=O)(=O)c1ccc2c(c1)/C(=C/c1cc3c([nH]1)CCCC3)C(=O)N2", "note": "+ NCC(=O)Nc1ccc(-n2nc(C(F)(F)F)cc2-c2ccc3c(ccc4ccccc43)c2)cc1 [OSU03012] (first compound 0.4 µM, partner dose 1 µM)", "cleaved PARP positive nuclei fraction": 695}
{"compound": "N#Cc1c(O)c2c(-c3ccc(-c4ccccc4O)cc3)csc2[nH]c1=O", "note": "+ O=S(=O)(c1ccccc1)N(CC(F)(F)F)c1ccc(C(O)(C(F)(F)F)C(F)(F)F)cc1 [T0901317] (first compound 2 µM, partner dose 1.4 µM)", "cleaved PARP positive nuclei fraction": 117}
{"compound": "NCC(=O)Nc1ccc(-n2nc(C(F)(F)F)cc2-c2ccc3c(ccc4ccccc43)c2)cc1", "note": "+ COc1cc2c(Oc3ccc4[nH]c(C)cc4c3F)ncnc2cc1OCCCN1CCCC1 [cediranib] (first compound 1 µM, partner dose 0.4 µM)", "cleaved PARP positive nuclei fraction": 1330}
{"compound": "CN(NC(=O)CC(=O)NN(C)C(=S)c1ccccc1)C(=S)c1ccccc1", "note": "+ c1cc(-c2cnn3cc(-c4ccc(OCCN5CCCCC5)cc4)cnc23)ccn1 [Dorsomorphin] (first compound 0.006 µM, partner dose 0.4 µM)", "cleaved PARP positive nuclei fraction": 72.5}
{"compound": "COc1cc2c(Oc3ccc4[nH]c(C)cc4c3F)ncnc2cc1OCCCN1CCCC1", "note": "[cediranib] + c1cc(-c2cnn3cc(-c4ccc(OCCN5CCCCC5)cc4)cnc23)ccn1 [Dorsomorphin] (first compound 0.4 µM, partner dose 0.4 µM)", "cleaved PARP positive nuclei fraction": 52.2}
{"compound": "CN(NC(=O)CC(=O)NN(C)C(=S)c1ccccc1)C(=S)c1ccccc1", "note": "+ N#Cc1c(O)c2c(-c3ccc(-c4ccccc4O)cc3)csc2[nH]c1=O [A769662] (first compound 0.006 µM, partner dose 2 µM)", "cleaved PARP positive nuclei fraction": 46.9}
{"compound": "O=C(O)c1ccc(-c2c[nH]c3ncc(-c4ccccc4)cc23)cc1C1CCCC1", "note": "+ CN(NC(=O)CC(=O)NN(C)C(=S)c1ccccc1)C(=S)c1ccccc1 [STA4783] (first compound 0.16 µM, partner dose 0.006 µM)", "cleaved PARP positive nuclei fraction": 38.3}
{"compound": "CN(C)S(=O)(=O)c1ccc2c(c1)/C(=C/c1cc3c([nH]1)CCCC3)C(=O)N2", "note": "+ CC(C)CCN1c2nc(Nc3cc(F)c(O)c(F)c3)ncc2N(C)C(=O)C1C [BID1870] (first compound 0.4 µM, partner dose 0.2 µM)", "cleaved PARP positive nuclei fraction": 62.4}
{"compound": "CN(NC(=O)CC(=O)NN(C)C(=S)c1ccccc1)C(=S)c1ccccc1", "note": "+ COc1cc2c(Oc3ccc4[nH]c(C)cc4c3F)ncnc2cc1OCCCN1CCCC1 [cediranib] (first compound 0.006 µM, partner dose 0.4 µM)", "cleaved PARP positive nuclei fraction": 41}
{"compound": "COC(=O)c1sccc1S(=O)(=O)Nc1ccc(Nc2ccccc2)cc1OC", "note": "+ COc1ccc(-c2ccc3c(N4CCOCC4)nc(N4C[C@@H](C)O[C@@H](C)C4)nc3n2)cc1CO [KU0063794] (first compound 1 µM, partner dose 0.02 µM)", "cleaved PARP positive nuclei fraction": 159}
{"compound": "COc1ccc2c(c1)CCC1C2CCC2(C)C(NCCCCCCN3C(=O)C=CC3=O)CCC12", "note": "(stereo not drawn) + COc1cc(N2CCC(N3CCN(C)CC3)CC2)ccc1Nc1ncc(Cl)c(Nc2ccccc2S(=O)(=O)C(C)C)n1 [NVP-TAE684] (first compound 0.4 µM, partner dose 0.08 µM)", "cleaved PARP positive nuclei fraction": 168}
{"compound": "O=C(O)C(=O)Nc1sc2c(c1C(=O)O)CCNC2", "note": "+ COc1cc(N2CCC(N3CCN(C)CC3)CC2)ccc1Nc1ncc(Cl)c(Nc2ccccc2S(=O)(=O)C(C)C)n1 [NVP-TAE684] (first compound 1.66667 µM, partner dose 0.08 µM)", "cleaved PARP positive nuclei fraction": 75.9}
{"compound": "CCCCCCCCCCCC1=C(O)C(=O)C=C(O)C1=O", "note": "[Embelin] + O=c1cc(-c2cccc3c2Sc2ccccc2S3)oc(N2CCOCC2)c1 [KU55933] (first compound 1.2 µM, partner dose 1 µM)", "cleaved PARP positive nuclei fraction": 114}
{"compound": "COc1cc2ncnc(Nc3ccc(Oc4ccccc4)cc3)c2cc1OC", "note": "+ CC(C)CCN1c2nc(Nc3cc(F)c(O)c(F)c3)ncc2N(C)C(=O)C1C [BID1870] (first compound 2 µM, partner dose 0.2 µM)", "cleaved PARP positive nuclei fraction": 104}
{"compound": "N#Cc1c(O)c2c(-c3ccc(-c4ccccc4O)cc3)csc2[nH]c1=O", "note": "+ COC(=O)c1sccc1S(=O)(=O)Nc1ccc(Nc2ccccc2)cc1OC [GSK0660] (first compound 2 µM, partner dose 1 µM)", "cleaved PARP positive nuclei fraction": 110}
{"compound": "NCC(=O)Nc1ccc(-n2nc(C(F)(F)F)cc2-c2ccc3c(ccc4ccccc43)c2)cc1", "note": "+ CN(NC(=O)CC(=O)NN(C)C(=S)c1ccccc1)C(=S)c1ccccc1 [STA4783] (first compound 1 µM, partner dose 0.006 µM)", "cleaved PARP positive nuclei fraction": 179}
{"compound": "NCC(=O)Nc1ccc(-n2nc(C(F)(F)F)cc2-c2ccc3c(ccc4ccccc43)c2)cc1", "note": "+ COc1cc(N2CCC(N3CCN(C)CC3)CC2)ccc1Nc1ncc(Cl)c(Nc2ccccc2S(=O)(=O)C(C)C)n1 [NVP-TAE684] (first compound 1 µM, partner dose 0.08 µM)", "cleaved PARP positive nuclei fraction": 238}
{"compound": "CCc1ccc(CCOc2ccc(CC3SC(=O)NC3=O)cc2)nc1", "note": "(stereo not drawn) [pioglitazone] + O=C(O)C(=O)Nc1sc2c(c1C(=O)O)CCNC2 [TCS401] (first compound 2 µM, partner dose 1.66667 µM)", "cleaved PARP positive nuclei fraction": 123}
{"compound": "CCN(CC)CCCCNc1ncc2cc(-c3cc(OC)cc(OC)c3)c(NC(=O)NC(C)(C)C)nc2n1", "note": "+ Oc1cc(-c2nc(-c3ccccc3)[nH]c2-c2ccncc2)ccc1Cl [L779450] (first compound 0.1 µM, partner dose 0.2 µM)", "cleaved PARP positive nuclei fraction": 128}
{"compound": "O=C1NC(=O)/C(=C/c2ccc(-c3ccc(F)cc3O)o2)S1", "note": "+ Cc1cc([N+](=O)[O-])ccc1NS(=O)(=O)c1cc(Cl)ccc1Cl [FH535] (first compound 1 µM, partner dose 1 µM)", "cleaved PARP positive nuclei fraction": 117}
{"compound": "c1cc(-c2cnn3cc(-c4ccc(OCCN5CCCCC5)cc4)cnc23)ccn1", "note": "[Dorsomorphin] + CCCCCCCCCCCC1=C(O)C(=O)C=C(O)C1=O [Embelin] (first compound 0.4 µM, partner dose 1.2 µM)", "cleaved PARP positive nuclei fraction": 104}
{"compound": "COC(=O)c1sccc1S(=O)(=O)Nc1ccc(Nc2ccccc2)cc1OC", "note": "+ O=C(O)C(=O)Nc1sc2c(c1C(=O)O)CCNC2 [TCS401] (first compound 1 µM, partner dose 1.66667 µM)", "cleaved PARP positive nuclei fraction": 156}
{"compound": "O=C(Nc1ccccc1)c1cc([N+](=O)[O-])ccc1Cl", "note": "+ COc1ccc(-c2ccc3c(N4CCOCC4)nc(N4C[C@@H](C)O[C@@H](C)C4)nc3n2)cc1CO [KU0063794] (first compound 2 µM, partner dose 0.02 µM)", "cleaved PARP positive nuclei fraction": 124}
{"compound": "O=C(O)c1ccc(-c2c[nH]c3ncc(-c4ccccc4)cc23)cc1C1CCCC1", "note": "+ COc1cc2c(Oc3ccc4[nH]c(C)cc4c3F)ncnc2cc1OCCCN1CCCC1 [cediranib] (first compound 0.16 µM, partner dose 0.4 µM)", "cleaved PARP positive nuclei fraction": 73.9}
{"compound": "CN(C)S(=O)(=O)c1ccc2c(c1)/C(=C/c1cc3c([nH]1)CCCC3)C(=O)N2", "note": "+ CN(NC(=O)CC(=O)NN(C)C(=S)c1ccccc1)C(=S)c1ccccc1 [STA4783] (first compound 0.4 µM, partner dose 0.006 µM)", "cleaved PARP positive nuclei fraction": 36.3}
{"compound": "O=C(O)c1ccc(-c2c[nH]c3ncc(-c4ccccc4)cc23)cc1C1CCCC1", "note": "+ NCC(=O)Nc1ccc(-n2nc(C(F)(F)F)cc2-c2ccc3c(ccc4ccccc43)c2)cc1 [OSU03012] (first compound 0.16 µM, partner dose 1 µM)", "cleaved PARP positive nuclei fraction": 154}
{"compound": "CN(C)S(=O)(=O)c1ccc2c(c1)/C(=C/c1cc3c([nH]1)CCCC3)C(=O)N2", "note": "+ COc1cc2c(Oc3ccc4[nH]c(C)cc4c3F)ncnc2cc1OCCCN1CCCC1 [cediranib] (first compound 0.4 µM, partner dose 0.4 µM)", "cleaved PARP positive nuclei fraction": 144}
{"compound": "COC(=O)c1sccc1S(=O)(=O)Nc1ccc(Nc2ccccc2)cc1OC", "note": "+ Oc1cc(-c2nc(-c3ccccc3)[nH]c2-c2ccncc2)ccc1Cl [L779450] (first compound 1 µM, partner dose 0.2 µM)", "cleaved PARP positive nuclei fraction": 116}
{"compound": "O=C1NC(=O)/C(=C/c2ccc(-c3ccc(F)cc3O)o2)S1", "note": "+ CCCCCCCCCCCC1=C(O)C(=O)C=C(O)C1=O [Embelin] (first compound 1 µM, partner dose 1.2 µM)", "cleaved PARP positive nuclei fraction": 105}
{"compound": "COc1cc(N2CCC(N3CCN(C)CC3)CC2)ccc1Nc1ncc(Cl)c(Nc2ccccc2S(=O)(=O)C(C)C)n1", "note": "+ CC(C)CCN1c2nc(Nc3cc(F)c(O)c(F)c3)ncc2N(C)C(=O)C1C [BID1870] (first compound 0.08 µM, partner dose 0.2 µM)", "cleaved PARP positive nuclei fraction": 125}
{"compound": "CN(C)S(=O)(=O)c1ccc2c(c1)/C(=C/c1cc3c([nH]1)CCCC3)C(=O)N2", "note": "+ O=C(O)c1ccc(-c2c[nH]c3ncc(-c4ccccc4)cc23)cc1C1CCCC1 [GSK650394] (first compound 0.4 µM, partner dose 0.16 µM)", "cleaved PARP positive nuclei fraction": 236}
{"compound": "COc1cc2ncnc(Nc3ccc(Oc4ccccc4)cc3)c2cc1OC", "note": "+ O=C1NC(=O)/C(=C/c2ccc(-c3ccc(F)cc3O)o2)S1 [AS252424] (first compound 2 µM, partner dose 1 µM)", "cleaved PARP positive nuclei fraction": 97.7}
